Consider 1 substance from patent EP0055702B1, “Antithrombotic treatment” (priority 1980, dated 1982).

In the series the test system is rats. The series is described as follows: Rats fed bait containing 0.5% sodium bisulphite. The settings on record: bait with 0.5% sodium bisulphite. It is filed as in vivo. The source says:
Five rats, each in a separate cage, were given a bait containing 0.5 percent by weight of sodium bisulphite. The bait consisted of cracked grains (wheat, corn, millet and corn meal). The amounts of bait eaten were summarized for an eleven day period.

Several values for one entry are separate records, joined by “and”; a condition that tells them apart may be missing. Identical values can stand only once.

Consider Sodium bisulphite, for which the g bait eaten by setting is: (1 day, 250g rats 1-5) 27.8 g and 25.9 g and 26.7 g and 28.0 g and 27.0 g; (3 days, 250g rats) 19.2 g and 19.4 g and 11.4 g; (4 days, 250g rats) 18.9 g and 10.1 g and 10.4 g; (9 days, 250g rats) 26.8 g and 27.8 g and 25.7 g; (10 days, 250g rats) 22.7 g and 26.2 g and 26.3 g; (11 days, 250g rats) 23.8 g and 21.0 g and 22.8 g.
